Not every detail of the peptide structures is certain; ends, links or a residue may be inferred. No end group written: not given here.
Key:
[1] = test system: aortic rings from Wistar rat; assay: Vasorelaxant activity in phenylephrine pre-contracted aortic rings; conditions: for vasodilator effect in the presence of L-NAME: 100 μM L-NAME, NO synthase inhibitor; for vasodilator effect in the absence of functional endothelium: endothelium-denuded vessels; for Maximal values for the relaxant effect (Emax): vessels with endothelium, 0.0001 to 1 μM cumulative, mean±SEM
From the text: Male Wistar rats of the age of 13-14 weeks (body weight: 250 to 300 g) were used. The rats were exposed to light-dark cycle of 12 hs (day—06:00 to 18:00; night—18:00 to 06:00) controlled by timer. Rats were killed by decapitation and exsanguination and tissues were rapidly removed.
Rings (3-4 mm) from the descending thoracic aorta, free of adipose and connective tissue, were set up in gassed (95% O2 and 5% CO2) Krebs-Henseleit solution (mmol/L): NaCl 110.8, KCl 5.9, NaHCO3 25.0, MgSO4 1.07, CaCl2 2.49, NaH2PO4 2.33 and glucose 11.51, at 37° C., under a tension of 1.0 g, for 1 hour to equilibrate. The presence of functional endothelium was assessed by the ability of Acetylcholine (1 μM) to induce more than 70% relaxation of vessels pre-contracted with phenylephrine (0.3 μM) (Lemos et al., 2005). When necessary, the endothelium was removed by rubbing the intimal surface with a wooden stick. Mechanical activity, recorded isometrically by a force transducer (Panlab, model number TR1210, Spain), was fed to an amplifier-recorder (Powerlab 4/20, ADInstruments, Inc.) and to a personal computer equipped with an analogue-to-digital converter board (AD16JR; World Precision Instruments, Inc.), using CVMS data acquisition/recording software (World Precision Instruments, Inc.).
The vasorelaxant activity of peptides —P61_S (SEQ ID NO:10), P61 (SEQ ID NO.9)-dimer (P61_D), P33_V (SEQ ID NO:7) and P33 (SEQ ID NO:6)-dimer (P33_D) were measured in vessels (N=5-8) with or without functional endothelium pre-contracted to the same tension level (approximately 1.5 g of tension) induced by submaximal concentrations of phenylephrine (0.01 μM). For comparison, the effect of Ang-(1-7) was also tested (N=4)
P61_S (SEQ ID NO:10), P61 (SEQ ID NO9)-dimer (P61_D), P33_V (SEQ ID NO:7) or P33 (SEQ ID NO:6)-dimer (P33_D) were added in increasing cumulative concentrations (0.0001 to 1 μM) once the response to phenylephrine had stabilized (FIG. 28). In order to verify the participation of endothelium-derived products in the relaxant effect of peptides, experiments were performed in the presence of 100 μM N′-Nitro-L-Arginine Methyl Ester-[L-NAME]—a nonselective inhibitor of nitric oxide synthase. In experiments performed in the presence of L-NAME, vessels were pre-contracted with 0.03 μM of phenylephrine, to achieve the same tension level as the others. L-NAME was added to the bath 20 min prior to the addition of phenylephrine.
Results are presented as mean±SEM. Two-way analysis of variance (ANOVA) with Bonferroni multiple comparison post-test was used to compare concentration response curves obtained in aortic rings. The vasodilator effect of P61_S (SEQ ID NO:10), P61 (SEQ ID N09)-dimer (P61_D), P33_V (SEQ ID NO:7), P33 (SEQ ID NO:6)-dimer (P33_D) and Ang-(1-7) were expressed as percentage decrease in maximal contraction induced by phenylephrine. All statistical analyses were considered significant when p<0.05.

Mas receptor = target: T1, Mas receptor (Homo sapiens, UniProt P04201); assay: Calcium flux in CHO-K1 cells co-transfected with Mas receptor and Gα16; format: cell-based; conditions: for calcium flux relative to the negative control: 1 μM, three wells, up to 90 seconds
T1 construct: expressed in transfected cells; host or cells: CHO-K1 (ATCC-CCL-61), transient co-transfection
T1 sequence (P04201 1-325): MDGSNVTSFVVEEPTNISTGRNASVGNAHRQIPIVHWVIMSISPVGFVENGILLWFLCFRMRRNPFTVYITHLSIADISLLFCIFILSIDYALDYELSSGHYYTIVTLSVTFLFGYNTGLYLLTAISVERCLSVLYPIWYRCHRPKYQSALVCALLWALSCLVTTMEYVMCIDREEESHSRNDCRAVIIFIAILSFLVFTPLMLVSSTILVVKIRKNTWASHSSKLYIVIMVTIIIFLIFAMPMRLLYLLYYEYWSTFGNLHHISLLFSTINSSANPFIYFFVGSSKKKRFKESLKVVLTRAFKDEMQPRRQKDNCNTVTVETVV
Experimental: The assay was carried out in CHO cells were transiently transfected with the GPCR of choice, by utilizing the promiscuous Gα16 to divert signaling to the Gq pathway, thus enabling readout of GPCR activation by testing for Calcium flux as described by Liu et al 2003 (Biomol Screen 8, 39-49).
All the peptides thus obtained were tested for their ability to change calcium flux in CHO—K1 cells (ATCC-CCL-61) transiently co-transfected with an expression vector containing the GPCR of choice and expression vector containing the Gα16 encoding cDNA. Expression constructs containing cDNA clones for MrgX1, MrgX2, Mas or FPRL1 were commercially obtained in one of the following expression vectors: pcDNA3.1, pCMV6, or MO2.
Transient transfections were performed using CHO—K1 cells as host cells. Cells (12 million) were plated into T75 flasks on the day preceding transfection. Cells were transfected with the appropriate GPCR expression vector and with a vector expressing Gα16 using a lipid-based reagent, MTI, according to the manufacturer's recommendation. Cells were transfected for 5 hours, then re-plated into 96-well dishes (60,000 cells per well) and grown overnight.
On the day of the experiment, cells were loaded with Fluo4-NW (Invitrogen) according to the manufacturer's recommendation. Plates were loaded into a FlexStation™ (Molecular Devices) plate reader and fluorescence was monitored. Seventeen seconds following initiation of reading, cells were stimulated with the indicated agonist/compound at final concentration of 1 μM. Each 96 well plate contained cells transfected with one GPCR expression vector and each of the examined peptides was tested in triplicate.
We defined a hit as a peptide which elicited a clear and distinct increase in intracellular calcium that is clearly visible and statistically significant upon examination of the calcium trace for at least two repeats. […]
Based on dose response experiments, EC50 best fit values were calculated by non-linear regression of sigmoidal dose-response curves, using Prism version 4 (GraphPad Software Inc., San Diego, Calif.). […]

Sequence | vasodilator effect in the presence of L-NAME [1] | vasodilator effect in the absence of functional endothelium [1] | Maximal values for the relaxant effect (Emax) [1] | calcium flux relative to the negative control (Mas receptor) | ability to induce calcium flux, P33 monomer, dimer and derivatives compared (Mas receptor; 0.1, 1, 10, 100, 1000 and 10000 nM)
SMVHRWSRAVLFPAAHRP [Peptide P33_V, SMVHRWSRAVLFPAAHRP] | completely inhibited | completely dependent on a functional endothelium | 15.69±3.66% | increased calcium flux | equally potent
FLGYSIYLNRKRRGDPAFKRRLRD [Peptide P61_S] | abolished | abolished | 39.99±5.034% | induced calcium flux | 
